Assay results from the supplement of paper PMC10849652.
This is one part of the list. Residues, ends and D or L forms follow the SMILES beside them. *: point of attachment. Cbz = O=C(OCc1ccccc1)*

Amino acid sequences for entries named in this document (tags omitted). A change or cut given only in a name is not applied to a line headed by its entry.
UniProt Q8IZ52: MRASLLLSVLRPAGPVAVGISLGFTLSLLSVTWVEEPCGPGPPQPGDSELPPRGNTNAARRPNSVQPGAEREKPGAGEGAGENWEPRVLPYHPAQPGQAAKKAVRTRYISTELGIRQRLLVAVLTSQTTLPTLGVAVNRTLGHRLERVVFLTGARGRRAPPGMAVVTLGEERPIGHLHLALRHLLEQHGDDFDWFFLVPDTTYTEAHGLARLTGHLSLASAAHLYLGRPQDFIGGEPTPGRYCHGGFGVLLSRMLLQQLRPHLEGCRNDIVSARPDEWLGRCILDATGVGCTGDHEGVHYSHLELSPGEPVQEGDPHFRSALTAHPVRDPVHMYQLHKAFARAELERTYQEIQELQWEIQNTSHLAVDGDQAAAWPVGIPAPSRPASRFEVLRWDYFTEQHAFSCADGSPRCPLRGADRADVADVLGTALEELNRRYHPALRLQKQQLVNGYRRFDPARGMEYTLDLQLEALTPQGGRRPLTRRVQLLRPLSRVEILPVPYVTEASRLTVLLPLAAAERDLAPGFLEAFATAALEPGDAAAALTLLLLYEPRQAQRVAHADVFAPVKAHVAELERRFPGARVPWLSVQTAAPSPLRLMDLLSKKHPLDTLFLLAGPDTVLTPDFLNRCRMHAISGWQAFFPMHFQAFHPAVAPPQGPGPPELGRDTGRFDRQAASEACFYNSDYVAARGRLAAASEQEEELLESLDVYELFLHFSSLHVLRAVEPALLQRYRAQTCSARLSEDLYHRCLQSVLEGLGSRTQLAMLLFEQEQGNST
UniProt P51795: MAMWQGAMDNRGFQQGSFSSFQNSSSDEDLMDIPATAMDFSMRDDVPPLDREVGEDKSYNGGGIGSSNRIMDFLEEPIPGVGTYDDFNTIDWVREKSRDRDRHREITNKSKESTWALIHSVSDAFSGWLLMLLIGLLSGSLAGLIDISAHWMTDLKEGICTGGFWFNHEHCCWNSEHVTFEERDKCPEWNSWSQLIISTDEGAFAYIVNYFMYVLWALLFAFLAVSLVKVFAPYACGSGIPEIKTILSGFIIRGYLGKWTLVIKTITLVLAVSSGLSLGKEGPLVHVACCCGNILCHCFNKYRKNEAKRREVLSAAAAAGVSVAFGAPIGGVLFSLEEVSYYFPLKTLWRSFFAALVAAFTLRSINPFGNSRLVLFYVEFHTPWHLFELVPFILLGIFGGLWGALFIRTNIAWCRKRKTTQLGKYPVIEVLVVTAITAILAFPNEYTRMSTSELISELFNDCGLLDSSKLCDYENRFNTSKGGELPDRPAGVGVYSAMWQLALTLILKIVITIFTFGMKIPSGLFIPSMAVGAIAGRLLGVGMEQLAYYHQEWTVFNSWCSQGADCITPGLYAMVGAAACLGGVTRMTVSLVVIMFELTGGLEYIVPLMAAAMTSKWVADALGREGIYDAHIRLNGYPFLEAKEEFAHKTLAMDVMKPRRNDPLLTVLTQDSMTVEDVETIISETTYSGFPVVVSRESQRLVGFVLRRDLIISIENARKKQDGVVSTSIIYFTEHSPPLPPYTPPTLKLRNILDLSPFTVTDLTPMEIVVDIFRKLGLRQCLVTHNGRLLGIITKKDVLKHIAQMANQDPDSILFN
UniProt Q14011: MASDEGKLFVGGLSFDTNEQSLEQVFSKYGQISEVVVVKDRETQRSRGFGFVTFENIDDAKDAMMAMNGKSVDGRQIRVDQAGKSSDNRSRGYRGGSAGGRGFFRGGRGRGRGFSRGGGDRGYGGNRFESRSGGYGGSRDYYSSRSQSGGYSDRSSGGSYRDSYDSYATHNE
UniProt Q05707: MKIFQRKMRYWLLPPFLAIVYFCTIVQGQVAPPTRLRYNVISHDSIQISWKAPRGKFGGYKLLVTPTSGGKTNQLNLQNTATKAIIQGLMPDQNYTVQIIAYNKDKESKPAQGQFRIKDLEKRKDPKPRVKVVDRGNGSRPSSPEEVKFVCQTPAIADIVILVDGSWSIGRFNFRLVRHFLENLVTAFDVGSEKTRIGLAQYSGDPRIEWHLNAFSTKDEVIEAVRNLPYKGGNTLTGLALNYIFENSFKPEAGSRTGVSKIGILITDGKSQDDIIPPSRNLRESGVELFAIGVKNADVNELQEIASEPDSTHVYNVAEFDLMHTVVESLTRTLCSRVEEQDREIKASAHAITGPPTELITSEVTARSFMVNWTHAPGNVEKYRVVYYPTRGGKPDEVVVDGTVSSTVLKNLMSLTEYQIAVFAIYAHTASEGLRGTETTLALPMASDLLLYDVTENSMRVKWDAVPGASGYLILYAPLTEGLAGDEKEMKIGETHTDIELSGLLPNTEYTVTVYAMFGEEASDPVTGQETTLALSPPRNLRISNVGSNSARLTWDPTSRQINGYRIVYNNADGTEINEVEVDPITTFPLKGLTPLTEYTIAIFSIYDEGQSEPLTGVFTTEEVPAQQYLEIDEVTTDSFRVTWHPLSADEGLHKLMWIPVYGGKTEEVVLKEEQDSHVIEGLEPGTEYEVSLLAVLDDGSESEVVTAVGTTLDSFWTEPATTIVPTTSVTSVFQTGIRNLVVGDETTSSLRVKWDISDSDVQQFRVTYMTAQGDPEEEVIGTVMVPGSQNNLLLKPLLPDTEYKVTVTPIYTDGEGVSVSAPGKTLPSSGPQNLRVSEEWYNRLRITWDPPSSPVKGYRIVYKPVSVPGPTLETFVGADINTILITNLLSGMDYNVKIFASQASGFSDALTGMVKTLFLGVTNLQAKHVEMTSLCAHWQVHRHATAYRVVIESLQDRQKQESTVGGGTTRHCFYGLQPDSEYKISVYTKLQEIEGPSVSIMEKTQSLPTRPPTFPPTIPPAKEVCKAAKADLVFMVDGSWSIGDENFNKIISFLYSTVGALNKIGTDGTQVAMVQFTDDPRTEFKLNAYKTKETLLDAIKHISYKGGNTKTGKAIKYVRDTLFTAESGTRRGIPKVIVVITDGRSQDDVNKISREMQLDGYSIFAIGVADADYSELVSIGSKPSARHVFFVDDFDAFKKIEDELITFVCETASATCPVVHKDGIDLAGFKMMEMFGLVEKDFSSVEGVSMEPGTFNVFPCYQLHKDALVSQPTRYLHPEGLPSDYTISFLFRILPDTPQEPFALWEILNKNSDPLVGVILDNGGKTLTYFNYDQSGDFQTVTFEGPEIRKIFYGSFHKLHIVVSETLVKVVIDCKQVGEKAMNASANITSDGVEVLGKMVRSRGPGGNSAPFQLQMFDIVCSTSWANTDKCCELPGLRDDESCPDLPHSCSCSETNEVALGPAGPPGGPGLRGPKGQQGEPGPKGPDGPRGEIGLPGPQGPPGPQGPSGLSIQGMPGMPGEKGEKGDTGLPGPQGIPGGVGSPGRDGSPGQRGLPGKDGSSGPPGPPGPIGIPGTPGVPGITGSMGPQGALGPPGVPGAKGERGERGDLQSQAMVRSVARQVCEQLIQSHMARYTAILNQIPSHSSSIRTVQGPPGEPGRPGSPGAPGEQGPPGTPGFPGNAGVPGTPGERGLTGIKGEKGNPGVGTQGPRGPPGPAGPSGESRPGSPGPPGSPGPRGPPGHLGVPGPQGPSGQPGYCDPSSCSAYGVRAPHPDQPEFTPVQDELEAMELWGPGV
UniProt O94985: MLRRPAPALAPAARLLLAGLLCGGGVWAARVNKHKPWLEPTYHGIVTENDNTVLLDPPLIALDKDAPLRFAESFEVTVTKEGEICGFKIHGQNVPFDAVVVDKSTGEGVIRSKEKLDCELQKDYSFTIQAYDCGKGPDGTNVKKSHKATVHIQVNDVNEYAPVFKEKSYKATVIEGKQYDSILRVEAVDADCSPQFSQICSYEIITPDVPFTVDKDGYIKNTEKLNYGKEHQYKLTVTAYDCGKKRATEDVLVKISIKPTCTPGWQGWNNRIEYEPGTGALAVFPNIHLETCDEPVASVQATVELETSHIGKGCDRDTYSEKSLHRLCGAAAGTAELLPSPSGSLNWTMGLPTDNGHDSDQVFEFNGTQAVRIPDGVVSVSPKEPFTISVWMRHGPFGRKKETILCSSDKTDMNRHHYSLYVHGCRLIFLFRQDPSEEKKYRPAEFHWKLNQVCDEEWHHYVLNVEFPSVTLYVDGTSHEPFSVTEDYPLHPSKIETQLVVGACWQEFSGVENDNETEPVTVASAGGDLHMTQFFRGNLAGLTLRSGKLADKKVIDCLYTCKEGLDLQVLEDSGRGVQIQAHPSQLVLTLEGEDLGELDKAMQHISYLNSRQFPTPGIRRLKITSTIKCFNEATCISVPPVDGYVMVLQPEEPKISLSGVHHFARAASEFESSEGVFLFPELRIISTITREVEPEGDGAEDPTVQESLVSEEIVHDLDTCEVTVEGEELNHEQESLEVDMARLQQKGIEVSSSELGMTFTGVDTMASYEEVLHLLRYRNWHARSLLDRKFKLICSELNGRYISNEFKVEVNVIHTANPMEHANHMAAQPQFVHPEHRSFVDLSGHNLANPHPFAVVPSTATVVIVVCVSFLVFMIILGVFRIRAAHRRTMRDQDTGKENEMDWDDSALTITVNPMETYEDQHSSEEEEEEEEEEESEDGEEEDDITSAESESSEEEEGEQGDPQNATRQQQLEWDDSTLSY
UniProt Q92989: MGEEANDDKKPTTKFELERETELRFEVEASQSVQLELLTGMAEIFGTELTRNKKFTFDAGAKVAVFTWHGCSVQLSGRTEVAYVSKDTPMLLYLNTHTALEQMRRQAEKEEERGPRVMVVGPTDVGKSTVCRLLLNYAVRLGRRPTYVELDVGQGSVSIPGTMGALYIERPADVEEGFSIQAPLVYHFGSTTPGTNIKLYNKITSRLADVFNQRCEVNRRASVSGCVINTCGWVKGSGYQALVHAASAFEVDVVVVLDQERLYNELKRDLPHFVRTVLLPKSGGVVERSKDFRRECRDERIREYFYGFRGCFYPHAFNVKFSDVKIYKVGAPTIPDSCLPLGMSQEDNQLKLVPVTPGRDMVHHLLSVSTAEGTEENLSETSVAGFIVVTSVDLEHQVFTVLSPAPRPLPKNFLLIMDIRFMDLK
UniProt P33552, whole entry, looked up: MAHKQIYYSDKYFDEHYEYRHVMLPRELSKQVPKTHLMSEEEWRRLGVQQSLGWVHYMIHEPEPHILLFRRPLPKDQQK
UniProt Q07065: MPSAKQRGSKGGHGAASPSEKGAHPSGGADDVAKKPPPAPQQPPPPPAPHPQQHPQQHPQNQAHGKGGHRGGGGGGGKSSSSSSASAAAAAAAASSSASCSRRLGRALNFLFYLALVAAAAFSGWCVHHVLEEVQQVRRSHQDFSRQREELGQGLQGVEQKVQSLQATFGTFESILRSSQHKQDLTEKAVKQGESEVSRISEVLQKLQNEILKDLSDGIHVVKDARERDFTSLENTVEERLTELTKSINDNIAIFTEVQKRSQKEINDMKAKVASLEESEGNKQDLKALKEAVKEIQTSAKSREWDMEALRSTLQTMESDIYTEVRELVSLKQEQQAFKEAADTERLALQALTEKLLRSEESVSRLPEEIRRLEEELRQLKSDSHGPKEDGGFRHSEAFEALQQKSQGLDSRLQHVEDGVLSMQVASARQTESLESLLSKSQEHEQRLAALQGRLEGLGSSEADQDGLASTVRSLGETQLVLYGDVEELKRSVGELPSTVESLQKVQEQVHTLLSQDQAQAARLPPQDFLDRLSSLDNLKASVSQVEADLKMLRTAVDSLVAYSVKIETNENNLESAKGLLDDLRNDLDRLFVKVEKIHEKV
UniProt Q8IZR5: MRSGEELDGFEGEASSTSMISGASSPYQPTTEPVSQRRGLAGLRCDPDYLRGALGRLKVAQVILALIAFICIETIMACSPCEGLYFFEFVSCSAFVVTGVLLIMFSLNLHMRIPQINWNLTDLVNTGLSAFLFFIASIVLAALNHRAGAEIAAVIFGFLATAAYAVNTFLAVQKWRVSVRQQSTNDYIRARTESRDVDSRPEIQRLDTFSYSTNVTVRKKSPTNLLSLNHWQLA
UniProt Q9NWW5: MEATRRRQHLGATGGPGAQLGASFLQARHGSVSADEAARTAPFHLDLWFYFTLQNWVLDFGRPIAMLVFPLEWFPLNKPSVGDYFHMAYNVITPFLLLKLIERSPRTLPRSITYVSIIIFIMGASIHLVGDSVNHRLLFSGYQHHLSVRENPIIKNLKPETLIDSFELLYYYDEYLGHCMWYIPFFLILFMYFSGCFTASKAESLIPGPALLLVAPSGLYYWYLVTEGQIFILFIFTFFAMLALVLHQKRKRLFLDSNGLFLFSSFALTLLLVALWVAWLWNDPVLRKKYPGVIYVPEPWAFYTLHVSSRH
UniProt G5E9Z2: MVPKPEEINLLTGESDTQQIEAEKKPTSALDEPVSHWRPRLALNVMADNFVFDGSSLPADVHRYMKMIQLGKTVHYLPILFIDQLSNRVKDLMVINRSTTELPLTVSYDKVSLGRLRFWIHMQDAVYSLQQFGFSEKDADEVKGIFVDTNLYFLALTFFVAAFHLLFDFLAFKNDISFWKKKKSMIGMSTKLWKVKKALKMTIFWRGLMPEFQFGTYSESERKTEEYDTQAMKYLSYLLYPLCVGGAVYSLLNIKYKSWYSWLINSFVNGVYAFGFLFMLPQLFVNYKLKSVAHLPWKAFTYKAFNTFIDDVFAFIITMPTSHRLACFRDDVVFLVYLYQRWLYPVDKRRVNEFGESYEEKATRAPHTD

Experiments:
Assay in all cases: log2 fold change, soluble protein after heating vs DMSO (PISA); higher = thermal stabilisation; K562 cells, 10 uM, 30 min; active = over 0.2 and 3.5 SD of the protein, either way, in both replicates (recomputed)
[1] = compound: C/C(=N\NC(=O)C1=CC(=CC=C1)S(=O)(=O)N2CCOCC2)/C3=C(C=CC(=C3)Cl)O
Method in brief: (§1)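 For each measurement, 10 μM compound was applied for 30 min to K562 cells at 2×10^6 cells/mL. Aliquots were heated for 3 min across 48°C-58°C, pooled, and extracted in PBS with 0.5% NP-40 at 4°C; the supernatant after 21,000xg for 90 min was soluble protein. This was quantified by TMTpro 16plex LC-MS/MS with channel sums equalised, and thermal stability was reported relative to control samples from duplicates, on a log2 fold-change scale.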

[2] = compound: C1=CC(=C(C=C1Cl)C2=NC3=NC=CN=C3C(=N2)NC4=CC=NC=C4)F
Method in brief: as §1

[3] = compound: C1=CC2=C(C=CC(=C2)/C=C\3/C(=O)NC(=NCC4=CC=CS4)S3)N=C1
Method in brief: as §1

[4] = compound: C1=CC2=NC=CN=C2C=C1/C=C/3\C(=O)NC(=O)S3
Method in brief: as §1

[5] = compound: C1=CC=C(C=C1)C2=NC(=C(N2)C3=CC=NC=C3)C4=CC(=C(C=C4)Cl)O
Method in brief: as §1

[6] = compound: C1=CC=C2C(=C1)C3=NNC4=CC=CC(=C43)C2=O
Method in brief: as §1

[7] = compound: C1CCN(C1)C(=O)NC2=CC=CC(=C2)NC3=NC=C(C(=N3)NCCC4=CN=CN4)Br
Method in brief: as §1

[8] = compound: C1CN(CCC1(CC2=CC=C(C=C2)Cl)N)C3=NC=NC4=C3C=CN4
Method in brief: as §1

IRAK-1-4 Inhibitor I = compound: C1COCCN1CCN2C3=CC=CC=C3N=C2NC(=O)C4=CC(=CC=C4)[N+](=O)[O-] [IRAK-1-4 Inhibitor I]
Method in brief: as §1

ibrutinib = compound: C=CC(=O)N1CCC[C@@H](n2nc(-c3ccc(Oc4ccccc4)cc3)c3c(N)ncnc32)C1 [ibrutinib]
Method in brief: as §1

[9] = compound: CC(=O)c1cnc2ccc(-c3cc(Cl)c(O)c(Cl)c3)nc2c1N[C@H]1CC[C@H](CN(C)C)CC1
Method in brief: as §1

ralimetinib = compound: CC(C)(C)Cn1c(N)nc2ccc(-c3[nH]c(C(C)(C)C)nc3-c3ccc(F)cc3)nc21 [ralimetinib]
Method in brief: as §1

[10] = compound: CC(C)(O)CC(=O)NCCn1ccc2ncnc(Nc3ccc(Oc4cccc(C(F)(F)F)c4)c(Cl)c3)c21
Method in brief: as §1

[11] = compound: CC(C)C[C@@H](C=O)NC(=O)[C@H](CC(C)C)NC(=O)[C@H](CC(C)C)NC(=O)OCc1ccccc1
Method in brief: as §1

pinometostat = compound: CC(C)N(C[C@H]1O[C@@H](n2cnc3c(N)ncnc32)[C@H](O)[C@@H]1O)[C@H]1C[C@@H](CCc2nc3cc(C(C)(C)C)ccc3[nH]2)C1 [pinometostat]
Method in brief: as §1

[12] = compound: CC1=C(C(CC(=O)N1)C2=CC=C(C=C2)C(F)(F)F)C(=O)NC3=C(C=C4C(=C3)C=NN4)F
Method in brief: as §1

[13] = compound: CC1=C(C2=C(C=C1)C(=O)C3=CC=CC=C3N2CCCN)C
Method in brief: as §1

erlotinib = compound: C#Cc1cccc(Nc2ncnc3cc(OCCOC)c(OCCOC)cc23)c1 [erlotinib]
Method in brief: as §1

[14] = compound: C1=CC(=CC=C1C2=NC3=C(N2)C=C(C=C3)C(=O)N)OC4=CC=C(C=C4)Cl
Method in brief: as §1

[15] = compound: CC(C)C1=C2N=C(C=C(N2N=C1)NCC3=CC=CC=C3)NCCCCCCN
Method in brief: as §1

Measured: log2 fold change

CHPF (UniProt Q8IZ52)
inactive: [1] -0.509 | [2] -0.128 | [3] -0.182 | [4] -0.001 | [5] 0.083 | [6] 0.384 | [7] 0.275 | [8] 0.315 | IRAK-1-4 Inhibitor I 0.125 | ibrutinib -0.05 | [9] -0.012 | ralimetinib 0.107 | [10] 0.296 | [11] 0.132 | pinometostat -0.206 | [12] -0.143 | [13] -0.189

CLDN12 (UniProt P56749)
inactive: [2] -0.143 | [4] 0.142 | [10] 0.147

CLCN5 isoform 2 (UniProt P51795)
inactive: erlotinib -0.009 | [14] 0.064 | [5] 0.125 | [7] -0.098 | [8] -0.011 | IRAK-1-4 Inhibitor I -0.019 | ralimetinib -0.154 | [15] -0.29 | [11] -0.004 | pinometostat 0.061 | [13] 0.009

CHUK (UniProt O15111)
inactive: [1] -0.096 | [2] -0.505 | [3] -0.022 | [5] -0.018 | [6] 0.162 | [7] -0.285 | [8] -0.28 | [9] 0.289 | ralimetinib 0.138 | [10] 0.002 | [11] 0.136 | [13] -0.126

CLYBL (UniProt Q8N0X4)
inactive: erlotinib 0.029 | [14] 0.081 | [15] 0.077

CLDN6 (UniProt P56747)
inactive: erlotinib -0.057 | [14] -0.09 | [15] 0.226

CIRBP (UniProt Q14011)
inactive: [1] -0.138 | [2] -0.561 | [3] -0.089 | [4] 0.086 | [6] 0.048 | [7] 0.056 | [8] 0.181 | ibrutinib 0.151 | [9] 0.091 | [10] 0.052 | [12] 0.032 | [13] -0.207

Retrieved one by one from the list above, 2 records:
CLCN5 isoform 2 (UniProt P51795)
inactive: erlotinib -0.009 | [14] 0.064 | [5] 0.125 | [7] -0.098 | [8] -0.011 | IRAK-1-4 Inhibitor I -0.019 | ralimetinib -0.154 | [15] -0.29 | [11] -0.004 | pinometostat 0.061 | [13] 0.009

CHUK (UniProt O15111)
inactive: [1] -0.096 | [2] -0.505 | [3] -0.022 | [5] -0.018 | [6] 0.162 | [7] -0.285 | [8] -0.28 | [9] 0.289 | ralimetinib 0.138 | [10] 0.002 | [11] 0.136 | [13] -0.126

(next part)

COL14A1 (UniProt Q05707)
inactive: [2] -0.018 | [7] -0.036 | [8] -0.116 | IRAK-1-4 Inhibitor I -0.036 | [10] 0.136 | pinometostat -0.254 | [12] 0.033 | [13] -0.158

CHSY1 (UniProt Q86X52)
inactive: [2] -0.161 | [10] -0.155

CLSTN1 (UniProt O94985)
inactive: [1] -0.22 | [3] 0.312 | [4] 0.087 | [5] -0.681 | [6] -0.005 | [7] 0.27 | [8] -0.082 | IRAK-1-4 Inhibitor I 0.028 | [9] -0.044 | ralimetinib -0.188 | [11] -0.044 | pinometostat -0.007 | [13] -0.15

CLP1 (UniProt Q92989)
inactive: erlotinib 0.069 | [14] -0.029 | [4] -0.013 | [7] -0.25 | [8] -0.059 | [15] -0.056 | [13] 0.195

CHPT1 (UniProt Q8WUD6)
inactive: [1] 0.181 | [2] 0.24 | [3] 0.078 | [5] 0 | [6] -0.024 | [7] -0.004 | [8] 0.01 | [9] 0.023 | ralimetinib -0.132 | [10] 0.223 | [11] -0.002 | [13] 0.044

CIP2A (UniProt Q8TCG1)
inactive: [2] -0.411 | [10] 0.044

CKS2 (UniProt P33552)
inactive: [1] 0.125 | [3] 0.116 | [4] -0.001 | [6] -0.032 | [7] 0.022 | [8] 0.02 | ibrutinib -0.087 | [9] -0.168 | [13] -0.058

CKAP4 (UniProt Q07065)
inactive: [1] 0.118 | [3] 0.003 | [5] -0.087 | [6] 0.012 | [7] -0.054 | [8] -0.029 | [9] -0.158 | ralimetinib -0.123 | [11] -0.049 | [12] 0 | [13] 0.114

COG5 isoform 2 (UniProt Q9UP83)
inactive: erlotinib -0.079 | [14] 0.014 | [5] 0.023 | IRAK-1-4 Inhibitor I -0.162 | ralimetinib 0.324 | [15] 0.089 | [11] 0.099 | pinometostat 0.427

CMTM4 (UniProt Q8IZR5)
inactive: [1] 0.147 | [2] 0.28 | [3] 0.115 | [4] -0.195 | [6] -0.202 | [7] 0.024 | [8] 0.125 | ibrutinib -0.05 | [9] -0.031 | [10] 0.041 | [12] 0 | [13] 0.128

CLIC6 (UniProt Q96NY7)
inactive: [2] 0.086 | [4] 0.007 | [5] -0.028 | [7] -0.013 | [8] -0.001 | IRAK-1-4 Inhibitor I -0.08 | ralimetinib -0.078 | [10] -0.098 | [11] -0.021 | pinometostat -0.041 | [12] 0.181 | [13] 0.028

CNN1 (UniProt P51911)
inactive: [1] 0.062 | [2] 0.055 | [3] 0.063 | [6] 0.041 | [7] -0.129 | [8] 0.118 | [9] -0.086 | [10] -0.071 | [13] 0.145

CLN6 (UniProt Q9NWW5)
inactive: [1] 0.047 | [2] 0.019 | [3] 0.204 | [4] -0.084 | [5] 0.117 | [6] -0.199 | [7] 0.12 | [8] -0.035 | [9] -0.024 | ralimetinib -0.045 | [10] -0.051 | [11] 0.025 | [12] -0.18 | [13] 0.093

COG1 (UniProt Q8WTW3)
inactive: [5] -0.2 | [7] -0.493 | [8] -0.516 | IRAK-1-4 Inhibitor I -0.04 | ralimetinib 0.018 | [11] 0.103 | pinometostat 0.179 | [13] -0.079

CHTOP isoform 3 (UniProt Q9Y3Y2)
inactive: erlotinib -0.245 | [2] -0.232 | [14] -0.016 | [7] -0.241 | [8] -0.246 | IRAK-1-4 Inhibitor I 0.107 | [10] 0.168 | [15] 0.329 | pinometostat 0.125 | [13] -1.09

CLPTM1L (UniProt G5E9Z2)
inactive: [1] 0.109 | [2] 0.492 | [3] -0.139 | [4] 0.284 | [6] 0.174 | [7] 0.145 | [8] 0.272 | [9] -0.03 | [10] -0.556 | [13] -0.201
